Literature values, collected in patent publication US20040052837A1, “Lipid conjugated anti-cancer drugs and methods of use thereof” (priority 2002, published 2004).
At least one structure is not confirmed: it was looked up by name or label, or the drawing left a doubt.

System: human T cell leukemia Jurkat
Conditions: DHA delivered in ethanol (40); read-out: IC50 for cell growth; cited from earlier work

## CC/C=C\C/C=C\C/C=C\C/C=C\C/C=C\C/C=C\CCC(=O)O [DHA, docosahexaenoic acid]
  IC50: 40 µM
